The values below come from paper PMC5773536.

These are yes or no findings as the source states them, for the method shown. For some assays here: Tags and fused reporters may be left off the sequences shown.

Experiment [1] has as its target recombinant luminal domain of GmVSR (soybean vacuolar sorting receptor) (Glycine max (soybean)). Put plainly: SPR; GmVSR(LU) immobilised on a CM5 chip; glycinin subunits injected in high salt buffer (20 mM HEPES, pH 7.0, 0.4 M NaCl, 1 mM EDTA, 0.4% CHAPS, 1 mM CaCl2), 180 s, 30 uL/min; both purified. Background: Surface plasmon resonance follows binding to a sensor surface in real time, without labels.

Experiment [2] has the same target. The experiment can be described thus: SPR; GmVSR(LU) immobilised on a CM5 chip; GST fusion protein injected in the absence of Ca2+; both purified.

B1: recombinant A3B4 subunit of glycinin (protein, UniProt P04347 25-516)
chain: ITSSKFNECQLNNLNALEPDHRVESEGGLIETWNSQHPELQCAGVTVSKRTLNRNGSHLPSYLPYPQMIIVVQGKGAIGFAFPGCPETFEKPQQQSSRRGSRSQQQLQDSHQKIRHFNEGDVLVIPLGVPYWTYNTGDEPVVAISPLDTSNFNNQLDQNPRVFYLAGNPDIEHPETMQQQQQQKSHGGRKQGQHRQQEEEGGSVLSGFSKHFLAQSFNTNEDTAEKLRSPDDERKQIVTVEGGLSVISPKWQEQEDEDEDEDEEYGRTPSYPPRRPSHGKHEDDEDEDEEEDQPRPDHPPQRPSRPEQQEPRGRGCQTRNGVEENICTMKLHENIARPSRADFYNPKAGRISTLNSLTLPALRQFGLSAQYVVLYRNGIYSPDWNLNANSVTMTRGKGRVRVVNCQGNAVFDGELRRGQLLVVPQNPAVAEQGGEQGLEYVVFKTHHNAVSSYIKDVFRVIPSEVLSNSYNLGQSQVRQLKYQGNSGPLVNP
With B1, in experiment [1], the binding entry was “no binding”.

B2: GST fused with the 10-residue C-terminal peptide of A1aB1b (peptide)
chain: PQESQKRAVA
As for B2, the binding result in experiment [2] is listed as “no binding (only in the absence of Ca2+)”.
